Laboratory results: patent US7537764
No constants are given. Whether binding was seen depends on the method and setting. A result given as binding can be weak or reduced; the word gives no strength.

B1: SC04-289 (scFv)
scFv: QMQLVQSGAEVKKPGESLRISCKGSGYSFTSNWITWVRQMPGKGLEWMGRIDPSDSYTNYSPSFQGHVTISADKSISTAYLQWSSLKASDTAMYYCARDVVGVGASDYYYYMDVWGKGTTVTVSSGTGGSGGTGSGTGGSTEIVLTQSPGTLSLSPGETATLSCRTSQSVSSSYLGWYQQKPGQAPRLLIYGASIRATGIPARFSGSGSGTEFTLTIDSLQSEDFAVYYCQQYNNWPPITFGQGTRLEIKR
B2: SC04-271 (scFv)
scFv: EVQLVETGAEVKKPGESLRISCKGSGYTFNNYWIGWVRQMPGKGLEWMGIIYPGDSDTRYSPSVQGHVTISADKSINTAYLQWSSLKASDTAVYYCARRPGYDYGFYYFDYWGQGTLVTVSSGTGGSGGTGSGTGGSTQSALTQPRSVSGSPGQSVTISCTGTSSDVGGYNYVSWYQHHPGKAPKLMIYDVSNRPLGVSNRFSGSKSGNTASLTISGLQAEDEADYYCSSYTSSSTYVFGTGTHLTVLS
B3: SC04-283 (scFv)
scFv: EVQLVQSGAEVKKSGESLKISCKGSGYTFNTYWIGWVRQMPGKGLEWMGIIYPGDSDTIYSPSFQGQVTISADKSISTAYLQWSSLKASDSAMYYCARLTFRRGYSGSDSFLPPGDFDYWGQGTLVTVSSGTGGSGGTGSGTGGSTDIQMTQSPSTLSASVGDRVTITCRASQSISSWLAWYQQKPGKAPNLLIYAASSLQSGVPSRFSGSGSGTDFTLTISSLQPDDSATYYCQQYNTYPLTFGGGTKVEIKR
B4: SC04-299 (scFv)
scFv: EVQLVETGGGVVQPGRSLRLSCAASGFTFSGYAMHWVRQAPGKGLDWVAVISYDGSEKYSADSVKGRFTISRDNSKNTLYLQMNSLRAEDTAVYYCAKESGGPIWYKYYGVDVWGQGTTVTVSSGTGGSGGTGSGTGGSTSYVLTQPPSLSAAPRQRVTISCSGSSSNIGNYGVNWYQQLPGKAPKLLIYYDDLLPSGVSDRFSGSKSGTSASLAISGLQSEDEGDYYCAAWDDTLSAWVFGGGTKLTVLG
B5: SC04-311 (scFv)
scFv: EVQLVQSGGGVVQPGRSLRLSCVASGFTFSKDAMHWVRQAPGKGLEWVAVISYDGSDKHYADSVKGRVTISRDNSRKTLYLRMDSLRAEDTALYYCARGYNSGHYFDYWGQGTLITVSSGTGGSGGTGSGTGGSTQSVLTQPPSVSAAPGQKVTISCSGTSSNIGDNYVSWYQHLPGTAPKLLIYDNNKRPSGIPDRFSGSKSGTSATLGVTGLQTGDEADYYCGTWDSSLTAVVFGGGTKLTVLG
B6: CR4289 (antibody, V domains shown)
VH: EVQLVQSGAEVKKPGESLRISCKGSGYSFTSNWITWVRQMPGKGLEWMGRIDPSDSYTNYSPSFQGHVTISADKSISTAYLQWSSLKASDTAMYYCARDVVGVGASDYYYYMDVWGQGTTVTVSS
VL: EIVLTQSPGTLSLSPGETATLSCRTSQSVSSSYLGWYQQKPGQAPRLLIYGASIRATGIPARFSGSGSGTEFTLTIDSLQSEDFAVYYCQQYNNWPPITFGQGTRLEIKR
B7: CR4299 (antibody, V domains shown)
VH: QVQLVESGGGVVQPGRSLRLSCAASGFTFSGYAMHWVRQAPGKGLDWVAVISYDGSEKYSADSVKGRFTISRDNSKNTLYLQMNSLRAEDTAVYYCAKESGGPIWYKYYGVDVWGQGTTVTVSS
VL: SYVLTQPPSLSAAPRQRVTISCSGSSSNIGNYGVNWYQQLPGKAPKLLIYYDDLLPSGVSDRFSGSKSGTSASLAISGLQSEDEGDYYCAAWDDTLSAWVFGGGTKLTVLG

What follows are binders tested against West Nile virus strain USA99b (strain 385-99), whole virus (West Nile virus strain 385-99 (USA99b)) (assay: phage ELISA).

Binder	binding
B1	binds
B2	binds
B3	binds
B4	binds
B5	binds

The binders below were run against West Nile virus strain USA99b (strain 385-99), whole virus (West Nile virus strain 385-99 (USA99b)) (assay: Western blot or immunoprecipitation of inactivated WNV).

Binder	binding
B6	binds
B7	binds
